From publication PMC11814372
These are yes or no findings as the source states them, for the method shown. Binding seen in cells or lysates may run through a third protein. Some binding calls cover weakened binding; strength is not graded here. Tags and fused reporters may be left off the sequences shown.

By UniProt entry, the sequences of proteins in these tests, tags left out.
UniProt Q9NZM1: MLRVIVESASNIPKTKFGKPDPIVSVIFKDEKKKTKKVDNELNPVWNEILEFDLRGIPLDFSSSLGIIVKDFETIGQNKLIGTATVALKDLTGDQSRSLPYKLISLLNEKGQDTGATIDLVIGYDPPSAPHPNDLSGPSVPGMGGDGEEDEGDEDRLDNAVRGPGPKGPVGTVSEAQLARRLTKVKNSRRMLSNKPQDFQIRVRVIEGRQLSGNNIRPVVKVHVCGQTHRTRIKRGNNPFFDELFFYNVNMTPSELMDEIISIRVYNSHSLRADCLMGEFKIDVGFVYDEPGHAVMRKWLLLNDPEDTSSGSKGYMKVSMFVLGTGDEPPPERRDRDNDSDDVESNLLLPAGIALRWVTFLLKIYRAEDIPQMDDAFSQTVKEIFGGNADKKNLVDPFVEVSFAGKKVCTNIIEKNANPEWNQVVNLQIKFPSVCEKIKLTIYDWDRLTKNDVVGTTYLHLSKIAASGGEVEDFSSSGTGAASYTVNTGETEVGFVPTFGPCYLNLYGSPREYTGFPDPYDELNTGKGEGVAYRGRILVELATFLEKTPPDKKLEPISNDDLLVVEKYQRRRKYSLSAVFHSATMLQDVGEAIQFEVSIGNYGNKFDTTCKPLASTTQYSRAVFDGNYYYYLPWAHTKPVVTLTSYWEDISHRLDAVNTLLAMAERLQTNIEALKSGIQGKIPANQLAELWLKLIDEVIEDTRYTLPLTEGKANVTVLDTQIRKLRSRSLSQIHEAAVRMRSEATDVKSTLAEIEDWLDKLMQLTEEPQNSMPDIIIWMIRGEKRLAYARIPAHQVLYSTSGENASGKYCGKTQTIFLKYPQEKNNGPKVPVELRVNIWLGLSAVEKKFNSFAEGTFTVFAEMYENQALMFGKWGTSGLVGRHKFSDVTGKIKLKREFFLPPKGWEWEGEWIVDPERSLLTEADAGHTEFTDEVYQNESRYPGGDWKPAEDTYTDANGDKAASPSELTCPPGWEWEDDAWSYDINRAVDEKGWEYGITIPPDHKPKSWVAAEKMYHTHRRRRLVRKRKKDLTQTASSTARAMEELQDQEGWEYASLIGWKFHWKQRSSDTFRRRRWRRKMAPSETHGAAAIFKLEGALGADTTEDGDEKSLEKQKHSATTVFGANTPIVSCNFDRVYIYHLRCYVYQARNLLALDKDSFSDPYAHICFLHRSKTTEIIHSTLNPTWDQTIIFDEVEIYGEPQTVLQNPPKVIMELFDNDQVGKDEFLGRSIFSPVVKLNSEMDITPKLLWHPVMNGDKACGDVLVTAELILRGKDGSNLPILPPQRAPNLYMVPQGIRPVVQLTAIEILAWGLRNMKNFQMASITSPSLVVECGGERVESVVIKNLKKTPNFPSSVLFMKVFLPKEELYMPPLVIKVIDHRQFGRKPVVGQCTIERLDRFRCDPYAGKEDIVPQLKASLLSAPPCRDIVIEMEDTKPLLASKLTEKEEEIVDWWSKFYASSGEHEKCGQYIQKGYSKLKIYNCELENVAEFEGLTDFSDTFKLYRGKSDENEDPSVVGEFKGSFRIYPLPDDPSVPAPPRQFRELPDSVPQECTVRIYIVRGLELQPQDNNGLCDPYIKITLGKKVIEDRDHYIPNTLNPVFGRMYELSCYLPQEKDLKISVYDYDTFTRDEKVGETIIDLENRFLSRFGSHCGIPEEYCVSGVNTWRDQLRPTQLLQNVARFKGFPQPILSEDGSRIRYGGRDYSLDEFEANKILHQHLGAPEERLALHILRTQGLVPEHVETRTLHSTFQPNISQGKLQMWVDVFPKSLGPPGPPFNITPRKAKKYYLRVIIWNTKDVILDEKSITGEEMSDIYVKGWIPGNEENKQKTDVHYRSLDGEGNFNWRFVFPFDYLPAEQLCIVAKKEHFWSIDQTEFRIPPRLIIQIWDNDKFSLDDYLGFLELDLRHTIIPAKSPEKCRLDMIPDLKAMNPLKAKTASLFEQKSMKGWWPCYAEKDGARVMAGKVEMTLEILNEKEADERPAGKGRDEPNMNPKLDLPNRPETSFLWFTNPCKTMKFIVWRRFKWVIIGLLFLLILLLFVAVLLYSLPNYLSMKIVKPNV

Columns and labels:
TRIM8-V5 = target: T1, TRIM8-V5 (UniProt Q9BZR9); experiment: co-IP; CL1-0 cells stably expressing TRIM8-V5; immunoprecipitation with anti-V5 antibodies, western blot for endogenous MYOF
T1 sequence: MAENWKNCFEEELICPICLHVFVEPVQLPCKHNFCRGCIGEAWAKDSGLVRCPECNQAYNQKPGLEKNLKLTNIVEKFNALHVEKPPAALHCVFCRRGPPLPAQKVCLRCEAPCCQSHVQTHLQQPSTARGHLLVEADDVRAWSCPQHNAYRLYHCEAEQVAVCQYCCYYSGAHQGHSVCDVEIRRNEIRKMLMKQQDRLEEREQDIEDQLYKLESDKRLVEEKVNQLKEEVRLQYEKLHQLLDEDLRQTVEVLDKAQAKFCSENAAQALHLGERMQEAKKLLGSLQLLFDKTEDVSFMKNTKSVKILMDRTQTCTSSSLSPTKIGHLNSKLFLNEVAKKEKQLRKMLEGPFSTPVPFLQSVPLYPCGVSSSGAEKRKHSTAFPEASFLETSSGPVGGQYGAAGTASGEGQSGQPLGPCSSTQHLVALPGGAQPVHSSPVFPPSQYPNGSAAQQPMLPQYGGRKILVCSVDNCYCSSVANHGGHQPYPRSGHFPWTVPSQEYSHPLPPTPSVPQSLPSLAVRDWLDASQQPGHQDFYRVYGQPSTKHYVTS

[1] = target: MYOF (Myoferlin) (human (endogenous in CL1-0)) (UniProt Q9NZM1); experiment: co-IP; CL1-0 cells stably expressing TRIM8-V5; endogenous MYOF as the bait, western blot for TRIM8-V5

Row | Molecule | binding (TRIM8-V5) | binding [1]
1 | MYOF (Myoferlin) (from UniProt Q9NZM1 1-2061) | binds | 
2 | TRIM8-V5 (enzyme, UniProt Q9BZR9 1-551) MAENWKNCFEEELICPICLHVFVEPVQLPCKHNFCRGCIGEAWAKDSGLVRCPECNQAYNQKPGLEKNLKLTNIVEKFNALHVEKPPAALHCVFCRRGPPLPAQKVCLRCEAPCCQSHVQTHLQQPSTARGHLLVEADDVRAWSCPQHNAYRLYHCEAEQVAVCQYCCYYSGAHQGHSVCDVEIRRNEIRKMLMKQQDRLEEREQDIEDQLYKLESDKRLVEEKVNQLKEEVRLQYEKLHQLLDEDLRQTVEVLDKAQAKFCSENAAQALHLGERMQEAKKLLGSLQLLFDKTEDVSFMKNTKSVKILMDRTQTCTSSSLSPTKIGHLNSKLFLNEVAKKEKQLRKMLEGPFSTPVPFLQSVPLYPCGVSSSGAEKRKHSTAFPEASFLETSSGPVGGQYGAAGTASGEGQSGQPLGPCSSTQHLVALPGGAQPVHSSPVFPPSQYPNGSAAQQPMLPQYGGRKILVCSVDNCYCSSVANHGGHQPYPRSGHFPWTVPSQEYSHPLPPTPSVPQSLPSLAVRDWLDASQQPGHQDFYRVYGQPSTKHYVTS |  | binds
